Reference: patent US12287326B2, “Fluorescent turn-on chemosensors for detection of aluminum ion and azide” (Morgan State University, priority 2019, dated 2025)
Some results were stated once for a whole list of compounds, not compound by compound.

Test: Effect of pH on fluorescence of free sensors
Assay type: physicochemical
Conditions: pH range from 3 to 10, free sensor 10 μM, no Al^3+

Compound: CCN(CC)c1ccc2c(c1)Oc1cc(N(CC)CC)ccc1C21c2ccccc2C(=O)N1/N=C/c1c(OC)ccc2ccccc12 [L1]
- pH at which color change and fluorescence turn-on of the free sensor appears: < 5

Compound: CCN(CC)c1ccc2c(c1)Oc1cc(N(CC)CC)ccc1C21c2ccccc2C(=O)N1/N=C/c1cc(Br)cc(OC)c1O [L2]
- pH at which color change and fluorescence turn-on of the free sensor appears: < 5
